Test results as given in patent publication US10563220B2, “Compositions and methods for efficient targeting of transgenes” (priority 2015, dated 2020).
Numbering of substitutions follows the chain as printed.

B1: APG6: Arabidopsis thaliana albino and pale green (APG6) chloroplast transit peptide, SEQ ID NO:1, tested linked to DMO or PPO (protein, listed as Arabidopsis thalinana)
chain: MATATTTATAAFSGVVSVGTETRRIYSFSHLQPSAAFPAKPSSFKSLKLKQSARLTRRLDHRPFVVRC
B2: Optimized APG6: amino-terminal optimized variant of the APG6 CTP, SEQ ID NO:2 (protein)
chain: B1 chain with T3S, A4S

System: R1 transgenic cotton plants
Assay: Amino-terminal sequencing of DMO from R1 cotton leaf
Conditions: DMO = full processing of the CTP

Row | Molecule | APG6-DMO processing
1 | B1 | DMO
2 | B2 | DMO
